Results from PubChem BioAssay AID493014 (National Center for Advancing Translational Sciences (NCATS), 2011).
About 170 (0.05%) of roughly 340,000 compounds were called active. Inconclusive results, whose numbers are uncertain, are shown with a selection of clear calls. The call rests on the fitted dose curve; in most records, active means well fitted inhibition curve with a large enough effect in the signal ratio, with a control signal flat (not every such curve was filed as active); inconclusive means small, poorly fitted or top-dose-only effect, or effect the other way, or a change in a side signal; inactive means flat fitted curve, though single readings scatter; the % refers to the signal ratio. Potencies beside an inconclusive call are fits to weak or partial responses and may not hold up.

Test: qHTS Assay to Find Inhibitors of Chronic Active B-Cell Receptor Signaling;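 on activity change, negative = inhibition: plate controls were basal doxycycline-induced cells for no effect and cells given 10 µM MG132 for full effect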
Settings: ABC-DLBCL IkBa-CBG/CBR reporter, luminescence ratio (green luciferase fused to IkBa over red control in TMD8 lymphoma cells), 4 h; activity change, negative = inhibition: at 46.1 µM (top of the series) unless noted
How it was run: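 Concentration-response series (up to 46 uM) were applied to TMD8 dual-reporter cells for 4 h at 37C with doxycycline. Green/red ratio, after filter-overlap correction, defined %Activity; red signal alone was normalised to basal cells and zero luminescence.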
Potency means the concentration at half of the fitted maximal effect.

| Structure (SMILES) | activity change, negative = inhibition | Potency |
| --- | --- | --- |
| CCN1CCN(Cc2ccc(NC(=O)c3ccc(C)c(NC(=O)c4cccc(-c5cn[nH]c(=O)c5)c4)c3)cc2C(F)(F)F)CC1 | inconclusive: -14.3% | – |
| CCn1c(NCc2ccco2)nc2c1c(=O)n(C)c(=O)n2C | inconclusive: 12.6% | – |
| CC(=O)Nc1cc(Cl)ccc1OS(=O)(=O)c1ccc(C)cc1 | inconclusive: -3.7% | – |
| CC(C)CN(CCCNC(=O)c1cc(=O)[nH]c2ccc(S(=O)(=O)N3CCCCCC3)cc12)CC(C)C | inactive: -0.0931% | – |
| Cn1c(SCC(=O)Nc2ccc(C(=O)O)cc2)nc2scc(-c3ccccc3Cl)c2c1=O | inactive: 0.287% | – |
| Cc1ccccc1N1CCN(Cc2cccc(C(=O)O)c2)CC1 | inactive: 2.39% | – |
| CC(=O)Nc1ccc(N=C(C2=C(O)c3ccccc3C2=O)c2ccccc2)cc1 | inconclusive: -14.4% | – |
| Cc1cc2nc(/C=C/c3cccnc3)[nH]c2cc1C | – | inconclusive: 11.2 µM [falling, partial curve] |
| O=S(=O)(NCc1ccccc1)c1ccc(S(=O)(=O)N(Cc2ccccn2)C2CCCC2)cc1 | inconclusive: 24% | – |
| CC(=O)c1cccc(NC(=O)/C(=C\c2cccnc2)NC(=O)c2ccc(C)cc2)c1 | inconclusive: -6.67% | – |
| OCCN1CCN(c2nc(-c3ccccc3O)nc3ccccc23)CC1 | inconclusive: 3.42% | – |
| O=C1OC(C(=O)Nc2ccccc2)Cc2ccccc21 (stereo not given) | inconclusive: -27.8% | – |
| CN(CC(=O)Nc1ccccc1Cl)C(=O)c1ccccc1SCC(=O)N1CCCC1 | inconclusive: 6.42% | – |
| CC(C)(C)NC(=O)CC1C[C@H](C(=O)N2CCCCC2)[C@@]2(C)c3[nH]c4ccccc4c3CCN2C1=O (stereo not given in full) | inconclusive: 5.24% | – |
| O=S(=O)(/N=C(/c1ccccc1)N1CCOCC1)c1ccc(Br)cc1 | inactive: 1.37% | – |
| COc1ccccc1NCC(=O)NN=C1CCS(=O)(=O)c2ccc(F)cc21 | – | inconclusive: 18.4 µM [falling, partial curve, poor fit] |
| CC(=O)Nc1cc2c(cc1NC(=O)Cn1nc(-c3ccc4c(c3)OCCO4)ccc1=O)OCCO2 | inconclusive: -22.1% | – |
| CC12COC3(P(=O)(c4ccccc4)c4ccccc4)CC1CCC23CP(=O)(c1ccccc1)c1ccccc1 (stereo not given) | inconclusive: 13% | – |
| CCOC(=O)c1ccc(N2C(=O)CC(SCC(=O)Nc3ccc(S(N)(=O)=O)cc3)C2=O)cc1 (stereo not given) | inconclusive: -8.34% | – |
| C[C@@H]1O[C@@H](O[C@@H]2[C@@H](O)[C@H](OCCc3ccc(O)c(O)c3)O[C@H](CO)[C@H]2OC(=O)/C=C/c2ccc(O)c(O)c2)[C@H](O)[C@H](O)[C@H]1O | inactive: -0.174% | – |
| O=C(CCCN1C(=O)/C(=C/c2ccccc2Cl)SC1=S)NNC(=O)c1ccncc1 | – | inconclusive: 6.31 µM [falling, partial curve] |
| COC(=O)c1ccsc1NC(=O)CS(=O)(=O)c1ccccc1 | inconclusive: 20% | – |
| COc1ccccc1NC(=O)c1ccc2nc(C)c(C)nc2c1 | inconclusive: -7.76% | – |
| COc1cc(C(=O)OC(C)CN2CCOCC2)cc(OC)c1OC (stereo not given) | inconclusive: 3.86% | – |
| O=C(NNC1=NS(=O)(=O)c2ccccc21)c1ccc([N+](=O)[O-])cc1 | – | inconclusive: 12.6 µM [falling, partial curve] |
| CCc1ccc(C(C)NC(=S)NCc2ccc(F)cc2)cc1 (stereo not given) | – | inconclusive: 35.5 µM [falling, single point] |
| CC(C)CCN1C(=O)c2ccc(C(=O)OCC(=O)N(CC(C)C)C3CCS(=O)(=O)C3)cc2C1=O (stereo not given) | inconclusive: -10.6% | – |

Full records as entered above.
CC(=O)Nc1cc2c(cc1NC(=O)Cn1nc(-c3ccc4c(c3)OCCO4)ccc1=O)OCCO2 as listed: activity change, negative = inhibition: inconclusive: -22.1%
Cc1cc2nc(/C=C/c3cccnc3)[nH]c2cc1C as listed: Potency: inconclusive: 11.2 µM [falling, partial curve]
CC(C)CCN1C(=O)c2ccc(C(=O)OCC(=O)N(CC(C)C)C3CCS(=O)(=O)C3)cc2C1=O (stereo not given) as listed: activity change, negative = inhibition: inconclusive: -10.6%
CN(CC(=O)Nc1ccccc1Cl)C(=O)c1ccccc1SCC(=O)N1CCCC1 as listed: activity change, negative = inhibition: inconclusive: 6.42%

(cont.)

| Structure (SMILES) | activity change, negative = inhibition | Potency |
| --- | --- | --- |
| O=C(NCCc1ccccc1)C1(c2ccccc2)CC1(Cl)Cl (stereo not given) | inconclusive: -2.19% | – |
| COc1cc(COC(=O)c2cnc(C)cn2)c(OC)cc1Br | inactive: 0.268% | – |
| CCOC(=O)C1=C(O)/C(=C/c2cn(CC(=O)N3CCCC3)c3ccccc23)SC1=Nc1ccccc1 | inconclusive: 3.57% | – |
| CCCc1n[nH]c2c1/C(=N\OCC)CC(C)(C)C2 | inconclusive: -6.21% | – |
| O=c1[nH]c(NNC(=S)NC2CCCCC2)nc2c1C1(CCCC1)Cc1ccccc1-2 | inconclusive: 15.8% | – |
| COc1ccc(OC)c(C(c2nnnn2C2CCCC2)N2CCc3ccccc3C2)c1 (stereo not given) | inconclusive: 4.8% | – |
| Cc1cccc2sc(NC(=O)CN(C)S(=O)(=O)c3cccs3)nc12 | inconclusive: 28.1% | – |
| CSc1ccccc1NC(=O)CN(C)CC(=O)Nc1cc(C)ccc1C | inactive: -11% | – |
| O=C(Nc1nc(-c2ccco2)cs1)c1ccccc1 | inconclusive: -0.133% | – |
| O=c1c2ccccc2nnn1-c1ccc(Br)cc1 | inconclusive: 10.5% | – |
| CCS(=O)(=O)c1ccc(C(=O)N2CCN(c3nc4c(OC)ccc(C)c4s3)CC2)cc1 | inconclusive: 12% | – |
| Cc1ccc(NC(=O)CNC(=O)c2ccco2)nc1 | inconclusive: 3.52% | – |
| O=C(/C=C/c1cc([N+](=O)[O-])ccc1OC(F)F)Nc1ccc(OC(F)F)cc1 | inconclusive: 3.02% | – |
| COC(=O)c1ccc2c(=O)n(CCCCCC(=O)NCCNC(C)=O)c(=O)[nH]c2c1 | inactive: 9.9% | – |
| Brc1ccc(-c2cnc3n2CCCC3)cc1 | inconclusive: 12.5% | – |
| COc1ccc(C(=O)NCc2cn3cccc(C)c3n2)cc1OC | inconclusive: 12.7% | – |
| C=CCn1c(=O)c2c(nc3n2CC(C)CN3CCc2ccccc2)n(C)c1=O (stereo not given) | inconclusive: 6.03% | – |
| O=C(c1ccc(NS(=O)(=O)c2ccc(Cl)c(Cl)c2)cc1)N1CCOCC1 | – | inconclusive: 29.1 µM [falling, single point] |
| O=c1nc(/C=C/c2ccccc2C(F)(F)F)cc(C(F)(F)F)[nH]1 | inconclusive: -13.1% | – |
| CCOc1ccccc1OCCCOc1ccc(C)cc1Cl | inconclusive: 12.1% | – |
| CC(C)(C)c1cc(NC(=O)Nc2ccccc2OC(F)(F)F)no1 | inconclusive: 1.08% | – |
| CC(=O)c1ccc(S(=O)(=O)N(C)CCCC(=O)N(C)Cc2c(F)cccc2Cl)cc1 | inactive: 11.7% | – |
| Cc1cc(C)nc(SCc2ccc(C(=O)N/N=C/c3ccncc3)cc2)n1 | – | inconclusive: 11.2 µM [falling, partial curve] |
| CSCCC(NC(=O)c1ccccc1Br)C(=O)NNC(=O)c1csc(N2CCOCC2)n1 (stereo not given) | inconclusive: -1.43% | – |
| CS(=O)(=O)c1ccc2nc(NC(=O)c3cccs3)sc2c1 | – | inconclusive: 4.11 µM [falling, single point] |
| c1ccc(-n2ncc3c(NCCCN4CCOCC4)ncnc32)cc1 | inconclusive: 13.1% | – |
| COC(=O)C1=C(C(=O)OC)SC(=C2C(=S)C(C)(C)N(C(=O)C(C)C)c3ccccc32)S1 | inactive: 0.621% | – |

Some of the entries so far, as tab-separated lines:
Structure (SMILES)	activity change, negative = inhibition	Potency
CC(=O)c1cccc(NC(=O)/C(=C\c2cccnc2)NC(=O)c2ccc(C)cc2)c1	inconclusive: -6.67%	–
OCCN1CCN(c2nc(-c3ccccc3O)nc3ccccc23)CC1	inconclusive: 3.42%	–

Carrying on:

| Structure (SMILES) | activity change, negative = inhibition | Potency |
| --- | --- | --- |
| ON/C=N/C(=S)Nc1ncc(C(F)(F)F)cc1Cl | – | inconclusive: 22.4 µM [falling, partial curve, poor fit] |
| O=C(N/N=C/c1cccc(OCc2ccccc2)c1)c1ccc(Br)o1 | inconclusive: -13.6% | – |
| CC(=O)c1ccc(NC(=O)CSc2ccsc2[N+](=O)[O-])cc1 | inactive: 4.5% | – |
| O=C(CN(Cc1ccccc1)S(=O)(=O)c1ccccc1)NC1CC1 | inconclusive: 16.5% | – |
| Nc1nn(S(=O)(=O)c2cccc3nsnc23)cc1-c1ccc(Br)cc1 | inconclusive: 1.97% | – |
| COc1cccc2cc(C(=O)Nc3cccnc3N3CCOCC3)c(=O)oc12 | inconclusive: 8.41% | – |
| Cc1cc(C)c(C(=O)/C=C/C=C/c2ccccc2)c(=O)[nH]1 | – | inconclusive: 23.1 µM [cytotoxic, single point] |
| Cc1ccc(C(=O)OCC(=O)Nc2cc(C(C)(C)C)nn2-c2ccccc2)c(O)c1 | inconclusive: 2.9% | – |
| Cc1ccc(NC(=O)c2nc[nH]c2C(=O)N[C@@H](C)c2ccccc2)cc1 | inconclusive: 22.8% | – |
| CC(C)C(=O)Nc1ccc(N2CCCC2)c(Cl)c1 | inconclusive: -4.92% | – |
| Cc1cc(=O)c(C(=O)Nc2cccc(N3CCCC3=O)c2)nn1-c1ccccc1Cl | – | inconclusive: 1.84 µM [falling, partial curve, poor fit] |
| CCCS(=O)(=O)c1c(S(=O)(=O)CCC)c2c(N)cccn2c1C(=O)c1ccc(Br)cc1 | inconclusive: -10.2% | – |
| CCC1Sc2ccccc2N(CC(=O)NC2CCCC2)C1=O (stereo not given) | inconclusive: 5.58% | – |
| Nc1nc(SCc2ccc(Cl)c(Cl)c2)n[nH]1 | inconclusive: -4.36% | – |
| N#C/C(=C/c1ccc(Oc2ccc([N+](=O)[O-])cn2)cc1)C(=O)N1CCOCC1 | inactive: -5.85% | – |
| O=C(COC(=O)C(c1ccccc1)c1ccccc1)NCc1ccco1 | inconclusive: -12.9% | – |
| COc1cc(OC)cc(C(=O)NCCCN2CCOCC2)c1 | inconclusive: 8.45% | – |
| C/C=C/c1ccc(OCC(=O)Nc2cc(Cl)ccc2-n2cncn2)c(OC)c1 | inconclusive: 8.42% | – |
| Cc1c(Cl)cnc(NC(=O)COC(=O)[C@H](C)NC(=O)c2ccccc2)c1Cl | inactive: 0.675% | – |
| C[C@H](CO)N1C[C@H](C)[C@@H](CN(C)S(C)(=O)=O)Oc2ccc(NS(=O)(=O)c3cn(C)cn3)cc2C1=O | inactive: 7.61% | – |
| CN(C)c1cc(-c2ccc(Br)cc2)oc(=O)c1Cl | inconclusive: 12.9% | – |
| O=C(COC(=O)C1CCCO1)Nc1cccc(C(F)(F)F)c1 (stereo not given) | inconclusive: 15.8% | – |
| CCOC(=O)Nc1sc(C)c(C)c1C(=O)OCC | inconclusive: -2.53% | – |
| COc1nc(N)c(C#N)c(-c2ccc(N(C)CCC#N)cc2)c1C#N | – | inconclusive: 12.6 µM [falling, single point] |
| O=C(CN(C(=O)CCC(=O)Nc1nccs1)c1ccccc1F)NCc1ccccc1 | inconclusive: 11.5% | – |
| Cc1coc2cc3oc(=O)c(CCC(=O)NCCN4CCOCC4)c(C)c3cc12 | inactive: 7.62% | – |
